In this assay the test system is K11 (HPV E7 transformed human keratinocyte line). The experiment in a line: Secondary assay: cell proliferation WST-1, K11. As to conditions: K11 cells, 48 hours, read-out: Cell Proliferation Inhibition WST-1 (IC50 unless otherwise specified) K11. It counts as cell-based. As to the method:
Compounds with HDAC inhibition activity, as determined using the primary assay, were subsequently evaluated using secondary cell-based assays. […] Assay Method
Cells were plated in 96-well plates at 3-10×10^3 cells/well in 100 μL of culture medium. The following day, different concentrations of candidate compounds were added and the cells incubated at 37° C. for 48 hours. Subsequently, 10 μL/well of WST-1 reagent was added and the cells reincubated for 1 hour. After the incubation time, absorbance was measured.
WST-1 is a tetrazolium salt which is cleaved to formazan dye by cellular enzymes. An expansion in the number of viable cells results in an increase in the overall activity of mitochondrial dehydrogenases in the sample. This augmentation in the enzyme activity leads to an increase in the amount of formazan dye formed, which directly correlates to the number of metabolically active cells in the culture. The formazan dye produced is quantified by a scanning multiwell spectrophotometer by measuring the absorbance of the dye solution at 450 nm wavelength (reference wavelength 690 nm).
IC50 values were calculated using the software package Prism 3.0 (GraphPad Software Inc., San Diego, Calif.), setting top value at 100 and bottom value at 0.
On the technique in general: Tetrazolium assays rely on reduction of a dye to a coloured formazan, in cell work by metabolically active cells.

As for `O=C(CCCCCCC(=O)Nc1ccccc1)NO` [SAHA, Suberoylanilide Hydroxamic Acid, reference compound], the IC50 stood at 6.82 µM.
